Test [1] deals with Flag-Fbxw7 (F-box and WD repeat domain-containing 7) (UniProt Q969H0). The test is described as follows: co-IP; Flag-Fbxw7 and HA-YAP plasmids transfected into HEK293 cells; 500 ug total protein lysate with 1 ug anti-HA or anti-Flag antibody or IgG, 4°C 2 hours, Protein G Sepharose 1 hour, washed three times; western blot. For orientation: In western blotting, separated proteins are transferred to a membrane and probed.

Protein sequences, listed by entry. Tags and fused reporters are not part of them.
UniProt Q969H0: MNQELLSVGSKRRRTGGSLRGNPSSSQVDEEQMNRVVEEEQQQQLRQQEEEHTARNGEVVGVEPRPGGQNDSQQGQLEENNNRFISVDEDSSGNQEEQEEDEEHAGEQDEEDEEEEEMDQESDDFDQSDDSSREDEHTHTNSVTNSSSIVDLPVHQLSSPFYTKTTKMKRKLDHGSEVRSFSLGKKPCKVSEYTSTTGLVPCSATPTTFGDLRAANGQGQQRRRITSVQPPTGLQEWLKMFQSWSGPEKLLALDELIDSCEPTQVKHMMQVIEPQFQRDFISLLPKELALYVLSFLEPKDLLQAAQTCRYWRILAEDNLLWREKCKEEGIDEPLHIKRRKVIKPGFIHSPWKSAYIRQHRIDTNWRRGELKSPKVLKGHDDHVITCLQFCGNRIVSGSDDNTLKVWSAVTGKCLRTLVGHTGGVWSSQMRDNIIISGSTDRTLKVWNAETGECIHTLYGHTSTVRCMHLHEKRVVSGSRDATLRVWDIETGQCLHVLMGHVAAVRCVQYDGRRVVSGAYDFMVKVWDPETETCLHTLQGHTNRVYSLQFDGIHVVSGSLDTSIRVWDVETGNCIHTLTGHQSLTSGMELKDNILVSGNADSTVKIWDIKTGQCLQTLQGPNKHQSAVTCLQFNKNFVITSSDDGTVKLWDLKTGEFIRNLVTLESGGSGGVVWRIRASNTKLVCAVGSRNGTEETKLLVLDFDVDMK
UniProt P46937: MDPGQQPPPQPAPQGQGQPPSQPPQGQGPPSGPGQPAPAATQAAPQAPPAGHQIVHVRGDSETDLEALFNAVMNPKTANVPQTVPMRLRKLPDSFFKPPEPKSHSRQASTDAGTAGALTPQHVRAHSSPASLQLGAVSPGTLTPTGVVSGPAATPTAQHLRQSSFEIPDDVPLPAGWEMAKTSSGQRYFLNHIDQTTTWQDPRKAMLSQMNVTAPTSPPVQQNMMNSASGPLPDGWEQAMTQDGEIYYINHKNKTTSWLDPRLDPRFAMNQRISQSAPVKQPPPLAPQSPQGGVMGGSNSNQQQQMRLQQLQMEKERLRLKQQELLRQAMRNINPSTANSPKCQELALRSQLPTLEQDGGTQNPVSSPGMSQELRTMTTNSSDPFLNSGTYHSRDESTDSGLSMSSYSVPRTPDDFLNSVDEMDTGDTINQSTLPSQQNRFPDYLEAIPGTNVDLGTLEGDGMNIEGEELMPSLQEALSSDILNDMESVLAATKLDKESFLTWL

For test [2], the target named is HA-YAP (Yes-associated protein) (UniProt P46937). Described as above.

These are yes or no findings as the source states them, for the method shown. Binding seen in cells or lysates may run through a third protein. Some binding calls cover weakened binding; strength is not graded here.

Consider “HA-YAP (Yes-associated protein) (from UniProt P46937 1-504)”, for which the binding result in test [1] is given as “binds”.
Take “Flag-Fbxw7 (F-box and WD repeat domain-containing 7) (from UniProt Q969H0 1-707)”: the binding result in test [2] is on record as “binds”.
